According to publication PMC6928932:
Results are given in words; binding and its absence hold for the method and conditions named. Some entries that bind do so weakly or less than the wild type.

The chains behind the UniProt entries cited, without tags or fusion partners. Residues count along the entry.
UniProt Q6W4X9, residues 23-2439: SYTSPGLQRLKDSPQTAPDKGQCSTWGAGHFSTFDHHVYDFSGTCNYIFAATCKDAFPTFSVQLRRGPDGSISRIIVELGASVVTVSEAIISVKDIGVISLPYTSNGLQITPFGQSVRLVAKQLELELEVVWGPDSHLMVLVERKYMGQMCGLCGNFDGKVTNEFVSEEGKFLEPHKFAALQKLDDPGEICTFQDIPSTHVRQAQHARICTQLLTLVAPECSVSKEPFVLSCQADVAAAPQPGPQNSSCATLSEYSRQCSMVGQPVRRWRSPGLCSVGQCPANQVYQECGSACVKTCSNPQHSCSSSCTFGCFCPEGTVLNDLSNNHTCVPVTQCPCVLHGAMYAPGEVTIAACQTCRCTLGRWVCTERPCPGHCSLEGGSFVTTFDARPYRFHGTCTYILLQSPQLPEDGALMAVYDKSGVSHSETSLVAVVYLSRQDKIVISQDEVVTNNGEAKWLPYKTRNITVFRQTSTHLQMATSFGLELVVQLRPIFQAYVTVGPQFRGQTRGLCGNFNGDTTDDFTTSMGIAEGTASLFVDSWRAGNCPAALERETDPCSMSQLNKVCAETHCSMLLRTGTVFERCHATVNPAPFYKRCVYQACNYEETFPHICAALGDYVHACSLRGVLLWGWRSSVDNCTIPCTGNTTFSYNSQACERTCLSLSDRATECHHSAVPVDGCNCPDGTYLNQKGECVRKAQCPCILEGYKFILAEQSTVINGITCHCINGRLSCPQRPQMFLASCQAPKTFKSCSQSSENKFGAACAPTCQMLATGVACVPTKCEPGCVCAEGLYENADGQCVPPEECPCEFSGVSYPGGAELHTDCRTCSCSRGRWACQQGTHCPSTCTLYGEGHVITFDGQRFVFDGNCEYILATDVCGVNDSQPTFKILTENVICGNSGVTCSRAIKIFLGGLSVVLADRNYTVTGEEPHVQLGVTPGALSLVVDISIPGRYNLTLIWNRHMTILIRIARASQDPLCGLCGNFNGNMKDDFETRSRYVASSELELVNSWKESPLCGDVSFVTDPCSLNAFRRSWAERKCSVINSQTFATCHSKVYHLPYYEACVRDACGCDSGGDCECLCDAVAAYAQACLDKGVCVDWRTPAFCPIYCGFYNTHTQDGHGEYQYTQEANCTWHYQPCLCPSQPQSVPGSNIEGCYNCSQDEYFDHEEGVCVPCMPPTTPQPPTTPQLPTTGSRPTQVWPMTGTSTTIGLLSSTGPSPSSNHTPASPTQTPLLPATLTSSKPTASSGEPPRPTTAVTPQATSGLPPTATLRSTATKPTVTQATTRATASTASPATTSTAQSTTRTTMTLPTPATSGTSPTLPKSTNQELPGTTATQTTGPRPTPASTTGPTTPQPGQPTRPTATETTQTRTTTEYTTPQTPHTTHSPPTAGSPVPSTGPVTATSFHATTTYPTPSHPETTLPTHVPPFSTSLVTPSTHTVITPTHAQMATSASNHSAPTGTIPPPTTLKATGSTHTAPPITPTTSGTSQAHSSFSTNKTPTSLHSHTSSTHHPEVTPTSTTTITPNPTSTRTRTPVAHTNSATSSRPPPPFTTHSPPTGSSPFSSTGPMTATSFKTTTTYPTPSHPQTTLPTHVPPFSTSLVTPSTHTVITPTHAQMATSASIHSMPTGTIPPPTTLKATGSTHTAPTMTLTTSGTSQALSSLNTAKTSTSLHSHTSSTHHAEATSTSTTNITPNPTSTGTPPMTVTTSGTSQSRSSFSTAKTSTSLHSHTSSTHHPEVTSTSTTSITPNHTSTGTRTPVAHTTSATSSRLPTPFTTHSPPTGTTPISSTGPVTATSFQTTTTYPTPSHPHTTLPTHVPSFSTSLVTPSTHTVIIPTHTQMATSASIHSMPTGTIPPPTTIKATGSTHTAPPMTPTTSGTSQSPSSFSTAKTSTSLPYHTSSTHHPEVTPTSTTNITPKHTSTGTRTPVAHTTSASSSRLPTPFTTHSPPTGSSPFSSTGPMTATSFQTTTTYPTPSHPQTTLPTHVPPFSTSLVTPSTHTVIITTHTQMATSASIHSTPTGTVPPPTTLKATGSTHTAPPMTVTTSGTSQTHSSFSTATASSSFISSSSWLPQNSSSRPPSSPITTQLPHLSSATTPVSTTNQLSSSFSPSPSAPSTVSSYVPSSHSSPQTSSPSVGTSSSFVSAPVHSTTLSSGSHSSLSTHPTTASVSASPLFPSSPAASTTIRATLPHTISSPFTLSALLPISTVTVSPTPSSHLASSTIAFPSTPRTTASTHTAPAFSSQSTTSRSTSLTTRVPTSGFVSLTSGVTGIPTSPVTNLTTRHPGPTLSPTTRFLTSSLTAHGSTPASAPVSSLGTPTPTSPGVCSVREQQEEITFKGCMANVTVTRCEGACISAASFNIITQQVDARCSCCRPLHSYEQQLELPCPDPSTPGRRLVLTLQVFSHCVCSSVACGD

What was measured:
[1] = target: human gastric mucin MUC6 (human (endogenous in gastric corpus tissue)) (UniProt Q6W4X9); test: far-Western, overlay or dot blot; 125I-labeled TFF2 incubated with a nitrocellulose blot of a 1% AgGE of Sephacryl S-500 fractions B8-D12 of a human gastric corpus E1-extract reduced in boiling 1% β-mercaptoethanol; autoradiography; only the binder purified
[2] = target: human gastric TFF2 (endogenous) (human (endogenous in gastric corpus tissue)) (UniProt Q03403); test: SEC + other: SDS-PAGE with Western blot; low-molecular-mass SEC fractions of human gastric extract, 15% SDS-PAGE under reducing and non-reducing conditions, Western blot for TFF2
[3] = target: 125I-labeled recombinant human glycosylated TFF2 (human) (UniProt Q03403); test: non-reducing SDS-PAGE and autoradiography; 125I-labeled TFF2 without S-mucin, 15% SDS-PAGE under non-reducing conditions; both purified

B1: 125I-labeled porcine pancreatic TFF2 (protein, UniProt P01359 22-127)
chain: QKPAACRCSRQDPKNRVNCGFPGITSDQCFTSGCCFDSQVPGVPWCFKPLPAQESEECVMEVSARKNCGYPGISPEDCARRNCCFSDTIPEVPWCFFPMSVEDCHY
modifications: 125I label
- binding [1]: binds

B2: human gastric TFF2 (endogenous) (protein, UniProt Q03403 24-129)
chain: EKPSPCQCSRLSPHNRTNCGFPGITSDQCFDNGCCFDSSVTGVPWCFHPLPKQESDQCVMEVSDRRNCGYPGISPEECASRKCCFSNFIFEVPWCFFPKSVEDCHY
modifications: mainly N-glycosylated, to a minor extent non-glycosylated
- binding [2]: no binding

B3: 125I-labeled recombinant human glycosylated TFF2 (protein, UniProt Q03403 24-129)
chain: B2 chain
modifications: 125I label; N-glycosylated (glycosylated form)
- binding [3]: no binding
